Test [1] deals with FLAG-BEND2 (mouse BEND2 with a 3xFLAG knock-in at the N-terminus) (mouse). Briefly: co-IP.
In test [2] the target is CHD4 (mouse (endogenous in testis)) (UniProt Q6PDQ2). Briefly: co-IP.

Protein sequences, listed by entry. Tags and fused reporters are not part of them.
UniProt Q6PDQ2: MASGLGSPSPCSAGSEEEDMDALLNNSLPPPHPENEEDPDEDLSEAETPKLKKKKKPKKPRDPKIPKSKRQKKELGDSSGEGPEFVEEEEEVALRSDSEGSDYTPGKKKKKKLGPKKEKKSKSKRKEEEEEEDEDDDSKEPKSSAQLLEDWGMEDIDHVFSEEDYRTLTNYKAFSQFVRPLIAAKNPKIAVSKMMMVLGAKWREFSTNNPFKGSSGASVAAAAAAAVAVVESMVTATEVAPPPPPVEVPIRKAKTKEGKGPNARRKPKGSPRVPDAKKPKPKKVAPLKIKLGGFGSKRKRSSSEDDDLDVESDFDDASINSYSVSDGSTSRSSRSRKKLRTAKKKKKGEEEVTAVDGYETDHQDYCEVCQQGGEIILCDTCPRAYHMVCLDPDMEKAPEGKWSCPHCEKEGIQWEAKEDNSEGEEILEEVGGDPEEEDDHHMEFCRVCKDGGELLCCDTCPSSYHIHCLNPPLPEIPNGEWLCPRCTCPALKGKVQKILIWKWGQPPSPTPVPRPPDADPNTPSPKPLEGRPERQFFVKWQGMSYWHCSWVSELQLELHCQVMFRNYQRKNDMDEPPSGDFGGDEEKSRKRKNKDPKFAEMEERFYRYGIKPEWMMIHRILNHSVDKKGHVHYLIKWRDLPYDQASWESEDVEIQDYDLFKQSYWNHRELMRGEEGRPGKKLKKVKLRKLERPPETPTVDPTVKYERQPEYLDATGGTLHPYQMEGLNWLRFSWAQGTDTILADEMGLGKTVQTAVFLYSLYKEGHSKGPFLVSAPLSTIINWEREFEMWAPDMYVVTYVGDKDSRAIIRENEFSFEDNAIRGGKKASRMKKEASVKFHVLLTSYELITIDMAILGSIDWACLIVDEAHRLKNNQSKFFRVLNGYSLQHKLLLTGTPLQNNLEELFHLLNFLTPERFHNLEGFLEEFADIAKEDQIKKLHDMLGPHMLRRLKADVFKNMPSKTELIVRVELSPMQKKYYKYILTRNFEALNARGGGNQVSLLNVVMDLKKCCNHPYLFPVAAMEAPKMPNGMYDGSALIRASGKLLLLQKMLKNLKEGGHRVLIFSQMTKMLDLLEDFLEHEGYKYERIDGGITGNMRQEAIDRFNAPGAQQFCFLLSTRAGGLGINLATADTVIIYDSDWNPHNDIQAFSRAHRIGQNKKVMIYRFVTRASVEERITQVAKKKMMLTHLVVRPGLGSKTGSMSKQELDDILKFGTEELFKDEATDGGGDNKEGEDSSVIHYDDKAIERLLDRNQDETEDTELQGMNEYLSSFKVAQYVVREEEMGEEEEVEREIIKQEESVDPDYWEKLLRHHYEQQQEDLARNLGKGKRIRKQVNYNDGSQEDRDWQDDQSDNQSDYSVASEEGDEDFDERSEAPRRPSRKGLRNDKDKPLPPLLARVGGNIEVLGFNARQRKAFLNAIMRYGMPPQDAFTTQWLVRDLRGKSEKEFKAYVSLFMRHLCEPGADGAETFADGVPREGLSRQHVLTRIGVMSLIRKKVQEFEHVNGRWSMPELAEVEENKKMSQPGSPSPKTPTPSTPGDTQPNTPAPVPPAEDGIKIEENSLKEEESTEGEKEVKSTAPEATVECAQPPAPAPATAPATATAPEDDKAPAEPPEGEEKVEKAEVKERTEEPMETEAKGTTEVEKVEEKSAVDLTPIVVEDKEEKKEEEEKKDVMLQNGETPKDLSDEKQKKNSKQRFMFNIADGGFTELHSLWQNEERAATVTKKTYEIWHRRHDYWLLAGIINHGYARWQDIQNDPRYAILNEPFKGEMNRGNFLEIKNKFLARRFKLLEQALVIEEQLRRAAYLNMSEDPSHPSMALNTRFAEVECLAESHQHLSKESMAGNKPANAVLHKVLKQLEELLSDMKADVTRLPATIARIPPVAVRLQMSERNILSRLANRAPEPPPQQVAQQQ
UniProt O09106: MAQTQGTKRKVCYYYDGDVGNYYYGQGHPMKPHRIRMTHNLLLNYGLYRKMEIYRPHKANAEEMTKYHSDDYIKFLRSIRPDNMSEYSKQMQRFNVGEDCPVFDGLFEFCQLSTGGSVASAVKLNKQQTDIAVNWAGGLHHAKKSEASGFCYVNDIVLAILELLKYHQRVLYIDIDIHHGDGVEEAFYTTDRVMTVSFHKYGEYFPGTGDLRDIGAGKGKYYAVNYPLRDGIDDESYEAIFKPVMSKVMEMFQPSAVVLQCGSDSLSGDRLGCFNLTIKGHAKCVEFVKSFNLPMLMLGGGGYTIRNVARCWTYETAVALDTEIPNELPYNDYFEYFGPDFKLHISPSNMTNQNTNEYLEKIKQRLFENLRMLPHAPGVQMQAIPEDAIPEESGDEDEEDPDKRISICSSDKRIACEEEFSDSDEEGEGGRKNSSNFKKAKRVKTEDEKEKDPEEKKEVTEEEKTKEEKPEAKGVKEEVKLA
UniProt P23198: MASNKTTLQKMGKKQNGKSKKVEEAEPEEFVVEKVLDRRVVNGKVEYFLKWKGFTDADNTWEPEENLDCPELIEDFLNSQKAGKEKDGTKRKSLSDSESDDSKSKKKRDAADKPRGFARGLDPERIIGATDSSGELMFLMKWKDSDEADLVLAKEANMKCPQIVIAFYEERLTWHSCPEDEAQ

No constants are given. Whether binding was seen depends on the method and setting. Binding seen in cells or lysates may run through a third protein. Some results given as binding are weak or reduced against the parent protein; the word gives no strength.

Take “CHD4 (from UniProt Q6PDQ2 1-1915) (enzyme)”: the binding entry in test [1] was “binds”.

With “HDAC1 (from UniProt O09106 1-482) (enzyme)”, the binding result in test [2] and in test [1] was “binds” in each case. With HP1γ (from UniProt P23198 1-183), the binding result in test [2] and in test [1] was “binds” each time.

B1: ZMYM2 (protein, UniProt Q9CU65 1-1376)
chain: MDTSSVGTLELTDQTPVLLGSTAMATSLTNVGNSFSGPPNPLVSRSSKFQNSSVEDDDDVVFIEPVQPPPSSAPLVADQRPITFTSSKNEELQGNDPKILPSSKELAPQKGSVSETIVIDDEEDMETNQGQEKSSSNFIERRPSETKNRTNDVDFSSSTFSRSKVNAGVSNSGITTEPDSEIQIANVTTLETGVSSVSDGQLESTDGRDMNLMITHVTSLHNTSLGDGSNGLQSSNFGVNIQTYTPSLTSQTKAGVGPFNPGRMNVAGDVFQNGESAPHHNPDSWISQSASFPRNQKQQGVDSLSPVASLPKQIFQPSNQQPTKPVKVTCANCKKPLQKGQTAYQRKGSAHLFCSTTCLSSFSHKPAPKKLCVMCKKDITTMKGTIVAQVDSSESFQEFCSTSCLSLYEDKQSPAKGALNKSRCTICGKLTEIRHEVSFKNMTHKLCSDHCFNRYRMANGLIMNCCEQCGEYLPSKGAGNNVLVVDGQQKRFCCQSCVTEYKQVGSHPSFLKEVRDHMQDSFLMQPEKYGKLTTCTGCRTQCRFFDMTQCIGPNGYMEPYCSTACMNSHKTKYAKSQSLGIICHFCKRNSLPQYQATMPDGKLYNFCNSSCVAKFQALSMQSSPNGQFVAPSDIQLKCNYCKNSFCSKPEILEWENKVHQFCSKTCSDDYKKLHCIVTYCEYCQEEKTLHETVNFSGVKRPFCSEGCKLLYKQDFARRLGLRCVTCNYCSQLCKKGATKELDGVVRDFCSEDCCKKFQEWYYKAARCDCCKSQGTLKERVQWRGEMKHFCDQHCLLRFYCQQNEPNMTTQKGPENLHYDQGCQTSRTKMTGSAPPPSPTPNKEMKNKAILCKPLTMTKATYCKPHMQTKSCQTDENWKTEYVPVPIPVPVYVPVPMHMYSQNIPVPTTVPVPVPVPVFLPAPLDSSEKIPATVEDLKSKVSSDPLDSELLTMTDMMTEEEGKAEASNINSVIIETDIIGSDLTKNSDPDIQSNMPDVPYEPDLDIEIDFPRAAEELDMENEFLLPPVFGEEYEEQPRPRSKKKGTKRKAVSGYQSHDDSSDNSECSFPFKYTYGVNAWKHWVKTRQLDEDLLVLDELKSSKSVKLKEDLLSHTTAELNYGLAHFVNEIRRPNGENYAPDSIYYLCLGIQEYLCGSNRKDNIFIDPGYQMFEQELNKILRSWQPSILPDGSIFSRVEEDYLWRIKQLGSHSPVALLNTLFYFNTKYFGLKTVEQHLRLSFGTVFRHWKKNPLTMENKACLRYQVSSLCGTDNEDKIATGKRKHEDDEPVFEQVENTANPSRCPVKMFECYLSKSPQNLNQRMDVFYLQPECSSSTDSPVWYTSTSLDRNTLENMLVRVLLVKDIYDKDNYELDEDTD
As for B1, in test [1], the binding result was “binds”.

B2: ADNP (protein, UniProt Q9Z103 1-1108)
chain: MFQLPVNNLGSLRKARKTVKKILSDIGLEYCKEHIEDFKQFEPNDFYLKNTTWEDVGLWDPSLTKNQDYRTKPFCCSACPFSSKFFSAYKSHFRNVHSEDFENRILLNCPYCTFNADKKTLETHIKIFHAPNSSAPSSSLSTFKDKNKNDGLKPKQADNVEQAVYYCKKCTYRDPLYEIVRKHIYREHFQHVAAPYIAKAGEKSLNGAVSLGTNAREECNIHCKRCLFMPKSYEALVQHVIEDHERIGYQVTAMIGHTNVVVPRAKPLMLIAPKPQDKKGMGLPPRISSLASGNVRSLPSQQMVNRLSIPKPNLNSTGVNMMSNVHLQQNNYGVKSVGQSYGVGQSVRLGLGGNAPVSIPQQSQSVKQLLPSGNGRSFGLGAEQRPPAAARYSLQTANTSLPPGQVKSPSVSQSQASRVLGQSSSKPPPAATGPPPSNHCATQKWKICTICNELFPENVYSVHFEKEHKAEKVPAVANYIMKIHNFTSKCLYCNRYLPTDTLLNHMLIHGLSCPYCRSTFNDVEKMAAHMRMVHIDEEMGPKTDSTLSFDLTLQQGSHTNIHLLVTTYNLRDAPAESVAYHAQNNAPVPPKPQPKVQEKADVPVKSSPQAAVPYKKDVGKTLCPLCFSILKGPISDALAHHLRERHQVIQTVHPVEKKLTYKCIHCLGVYTSNMTASTITLHLVHCRGVGKTQNGQDKTNAPSRLNQSPGLAPVKRTYEQMEFPLLKKRKLEEDADSPSCFEEKPEEPVVLALDPKGHEDDSYEARKSFLTKYFNKQPYPTRREIEKLAASLWLWKSDIASHFSNKRKKCVRDCEKYKPGVLLGFNMKELNKVKHEMDFDAEWLFENHDEKDSRVNASKTVDKKHNLGKEDDSFSDSFEHLEEESNGSGSPFDPVFEVEPKIPSDNLEEPVPKVIPEGALESEKLDQKEEEEEEEEEDGSKYETIHLTEEPAKLMHDASDSEVDQDDVVEWKDGASPSESGPGSQQISDFEDNTCEMKPGTWSDESSQSEDARSSKPAAKKKATVQDDTEQLKWKNSSYGKVEGFWSKDQSQWENASENAERLPNPQIEWQNSTIDSEDGEQFDSMTDGVADPMHGSLTGVKLSSQQA
With B2, the binding entry in test [2] and in test [1] was “binds” throughout.
